The results in this text go back to paper PMC12275198.

Chains of the proteins cited; added tags and fusions are not shown.
UniProt Q92830: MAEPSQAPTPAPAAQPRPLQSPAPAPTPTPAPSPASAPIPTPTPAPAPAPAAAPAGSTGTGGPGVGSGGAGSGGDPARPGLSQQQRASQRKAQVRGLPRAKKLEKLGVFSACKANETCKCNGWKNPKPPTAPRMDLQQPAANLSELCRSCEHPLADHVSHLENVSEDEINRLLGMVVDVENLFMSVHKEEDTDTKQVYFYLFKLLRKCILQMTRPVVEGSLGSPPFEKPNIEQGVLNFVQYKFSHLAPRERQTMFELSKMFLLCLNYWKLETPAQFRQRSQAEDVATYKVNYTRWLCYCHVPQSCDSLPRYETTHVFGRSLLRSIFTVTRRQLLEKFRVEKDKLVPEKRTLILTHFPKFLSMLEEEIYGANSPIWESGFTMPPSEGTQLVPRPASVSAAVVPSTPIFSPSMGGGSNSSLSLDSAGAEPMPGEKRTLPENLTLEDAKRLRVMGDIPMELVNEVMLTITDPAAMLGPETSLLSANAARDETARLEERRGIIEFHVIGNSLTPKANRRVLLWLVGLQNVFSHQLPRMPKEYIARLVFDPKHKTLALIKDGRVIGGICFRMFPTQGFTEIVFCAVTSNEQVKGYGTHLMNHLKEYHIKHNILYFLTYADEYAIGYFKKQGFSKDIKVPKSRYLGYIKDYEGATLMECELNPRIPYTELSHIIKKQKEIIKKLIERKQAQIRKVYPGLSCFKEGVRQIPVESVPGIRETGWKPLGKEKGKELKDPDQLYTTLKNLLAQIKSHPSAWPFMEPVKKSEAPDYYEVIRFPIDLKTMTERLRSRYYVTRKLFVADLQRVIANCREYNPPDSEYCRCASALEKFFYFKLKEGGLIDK
UniProt Q92831: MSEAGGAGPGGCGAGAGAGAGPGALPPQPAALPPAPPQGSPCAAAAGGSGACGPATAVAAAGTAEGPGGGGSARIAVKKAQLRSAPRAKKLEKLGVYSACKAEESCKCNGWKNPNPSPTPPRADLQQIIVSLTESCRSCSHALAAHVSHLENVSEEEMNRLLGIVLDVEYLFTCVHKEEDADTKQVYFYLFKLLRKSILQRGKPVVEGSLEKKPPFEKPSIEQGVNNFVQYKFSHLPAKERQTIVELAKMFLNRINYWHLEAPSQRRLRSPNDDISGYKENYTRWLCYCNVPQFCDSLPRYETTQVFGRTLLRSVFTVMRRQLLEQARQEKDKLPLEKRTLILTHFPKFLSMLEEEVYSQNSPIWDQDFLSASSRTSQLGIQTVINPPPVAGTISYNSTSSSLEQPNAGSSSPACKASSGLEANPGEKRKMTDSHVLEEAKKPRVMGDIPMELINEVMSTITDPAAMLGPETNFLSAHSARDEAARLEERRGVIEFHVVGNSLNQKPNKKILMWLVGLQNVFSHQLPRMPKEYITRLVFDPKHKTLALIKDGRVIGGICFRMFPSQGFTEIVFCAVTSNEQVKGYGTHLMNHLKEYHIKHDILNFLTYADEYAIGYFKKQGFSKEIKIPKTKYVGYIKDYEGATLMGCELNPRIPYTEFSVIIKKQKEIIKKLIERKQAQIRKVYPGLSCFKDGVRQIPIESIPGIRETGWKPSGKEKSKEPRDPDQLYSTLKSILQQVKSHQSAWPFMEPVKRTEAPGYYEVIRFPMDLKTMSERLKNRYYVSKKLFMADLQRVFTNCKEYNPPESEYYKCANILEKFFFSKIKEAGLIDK

No constants are given. Whether binding was seen depends on the method and setting. In cells and extracts the contact can be indirect. Some entries that bind do so weakly or less than the wild type. Sequences can lack the tags named with a protein.

The target in experiment [1] is T1, HA-YEATS2-WT (UniProt Q9ULM3).
T1 sequence: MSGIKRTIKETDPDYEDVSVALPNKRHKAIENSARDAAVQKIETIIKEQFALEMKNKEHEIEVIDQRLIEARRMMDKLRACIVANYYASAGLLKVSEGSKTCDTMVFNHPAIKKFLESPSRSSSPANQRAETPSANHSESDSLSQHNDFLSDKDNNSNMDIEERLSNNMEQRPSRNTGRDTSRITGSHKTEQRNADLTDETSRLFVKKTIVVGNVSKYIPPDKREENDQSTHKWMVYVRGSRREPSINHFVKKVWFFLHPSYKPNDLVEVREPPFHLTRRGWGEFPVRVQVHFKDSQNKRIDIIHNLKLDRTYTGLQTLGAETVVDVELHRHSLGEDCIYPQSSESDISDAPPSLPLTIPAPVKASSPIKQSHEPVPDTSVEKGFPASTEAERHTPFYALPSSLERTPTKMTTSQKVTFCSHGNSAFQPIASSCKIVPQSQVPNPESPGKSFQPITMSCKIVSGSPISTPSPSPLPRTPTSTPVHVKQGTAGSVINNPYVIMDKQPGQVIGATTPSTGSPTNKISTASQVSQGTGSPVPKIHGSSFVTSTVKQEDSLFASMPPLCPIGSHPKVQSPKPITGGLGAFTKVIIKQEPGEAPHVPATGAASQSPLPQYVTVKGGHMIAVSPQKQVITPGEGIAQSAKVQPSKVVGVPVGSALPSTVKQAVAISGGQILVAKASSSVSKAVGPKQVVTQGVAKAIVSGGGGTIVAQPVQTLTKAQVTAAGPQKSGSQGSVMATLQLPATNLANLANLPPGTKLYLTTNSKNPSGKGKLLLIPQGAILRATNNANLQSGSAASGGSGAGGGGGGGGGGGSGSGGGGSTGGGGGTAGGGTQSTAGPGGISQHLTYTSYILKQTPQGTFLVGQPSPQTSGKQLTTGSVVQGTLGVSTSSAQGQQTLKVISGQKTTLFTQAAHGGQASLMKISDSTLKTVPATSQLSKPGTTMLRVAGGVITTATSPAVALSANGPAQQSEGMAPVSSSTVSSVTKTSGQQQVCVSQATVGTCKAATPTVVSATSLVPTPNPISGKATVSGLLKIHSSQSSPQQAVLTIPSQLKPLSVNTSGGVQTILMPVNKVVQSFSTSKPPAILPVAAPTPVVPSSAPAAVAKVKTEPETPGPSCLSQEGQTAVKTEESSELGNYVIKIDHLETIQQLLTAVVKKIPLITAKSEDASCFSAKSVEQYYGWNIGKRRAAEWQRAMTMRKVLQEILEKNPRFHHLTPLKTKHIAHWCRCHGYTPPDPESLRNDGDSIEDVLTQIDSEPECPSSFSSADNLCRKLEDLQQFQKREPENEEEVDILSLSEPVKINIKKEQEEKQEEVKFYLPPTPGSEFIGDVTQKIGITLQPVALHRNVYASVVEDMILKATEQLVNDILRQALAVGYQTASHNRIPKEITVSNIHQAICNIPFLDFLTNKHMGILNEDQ
Nature of the experiment: co-IP; cotransfected cells, lysates fractionated into chromatin portions, then IP of tagged YEATS2 (anti-FLAG or anti-HA) and immunoblot. A general note: In western blotting, separated proteins are transferred to a membrane and probed.

The target in experiment [2] is T2, HA-YEATS2-T604A (UniProt Q9ULM3).
T2 sequence: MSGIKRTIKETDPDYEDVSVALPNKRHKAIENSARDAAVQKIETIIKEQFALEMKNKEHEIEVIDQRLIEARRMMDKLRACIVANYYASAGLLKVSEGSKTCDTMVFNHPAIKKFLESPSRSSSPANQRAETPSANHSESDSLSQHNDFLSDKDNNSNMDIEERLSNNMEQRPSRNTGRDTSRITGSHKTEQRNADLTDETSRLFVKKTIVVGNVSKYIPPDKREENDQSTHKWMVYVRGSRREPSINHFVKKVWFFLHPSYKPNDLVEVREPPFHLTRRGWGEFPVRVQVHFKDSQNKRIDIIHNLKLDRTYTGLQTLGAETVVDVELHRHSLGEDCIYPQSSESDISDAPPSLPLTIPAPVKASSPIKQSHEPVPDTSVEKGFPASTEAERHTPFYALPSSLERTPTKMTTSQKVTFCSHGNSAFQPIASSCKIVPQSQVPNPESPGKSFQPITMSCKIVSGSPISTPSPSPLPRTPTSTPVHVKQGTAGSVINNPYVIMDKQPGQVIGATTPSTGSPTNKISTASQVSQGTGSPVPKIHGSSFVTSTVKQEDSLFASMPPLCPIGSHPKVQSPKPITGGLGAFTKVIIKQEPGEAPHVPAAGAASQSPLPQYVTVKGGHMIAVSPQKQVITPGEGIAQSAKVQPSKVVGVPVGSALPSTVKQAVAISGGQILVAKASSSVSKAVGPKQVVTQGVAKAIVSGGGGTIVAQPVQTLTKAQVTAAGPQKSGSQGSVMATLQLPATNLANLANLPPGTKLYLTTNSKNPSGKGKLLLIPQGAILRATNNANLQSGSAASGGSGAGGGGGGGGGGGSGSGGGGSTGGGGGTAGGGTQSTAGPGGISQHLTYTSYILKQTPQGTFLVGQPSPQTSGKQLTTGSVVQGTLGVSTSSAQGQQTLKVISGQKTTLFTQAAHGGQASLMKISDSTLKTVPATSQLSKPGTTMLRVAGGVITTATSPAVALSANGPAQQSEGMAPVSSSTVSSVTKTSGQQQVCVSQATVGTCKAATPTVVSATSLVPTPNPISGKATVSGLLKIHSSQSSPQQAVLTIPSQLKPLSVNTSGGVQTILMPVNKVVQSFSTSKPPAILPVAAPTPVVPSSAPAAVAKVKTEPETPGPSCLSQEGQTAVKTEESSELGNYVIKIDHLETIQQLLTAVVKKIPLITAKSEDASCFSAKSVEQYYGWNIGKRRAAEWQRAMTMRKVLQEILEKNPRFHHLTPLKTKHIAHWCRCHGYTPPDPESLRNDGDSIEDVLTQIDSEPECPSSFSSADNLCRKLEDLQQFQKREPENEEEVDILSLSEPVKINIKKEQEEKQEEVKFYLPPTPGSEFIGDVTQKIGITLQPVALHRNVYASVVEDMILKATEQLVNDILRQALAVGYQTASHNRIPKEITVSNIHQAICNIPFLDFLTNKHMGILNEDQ
The description is as above.

In the case of “FLAG-GCN5 (from UniProt Q92830 1-837) (enzyme)”, the binding entry in experiment [1] and in experiment [2] was “binds” throughout.
Regarding “FLAG-PCAF (from UniProt Q92831 1-832) (enzyme)”, the binding result in experiment [1] and in experiment [2] was “binds” throughout.
